# Assay results taken from publication PMC10570038.
# Protein sequences, listed by entry. Tags and fused reporters are not part of them.
# UniProt P26599: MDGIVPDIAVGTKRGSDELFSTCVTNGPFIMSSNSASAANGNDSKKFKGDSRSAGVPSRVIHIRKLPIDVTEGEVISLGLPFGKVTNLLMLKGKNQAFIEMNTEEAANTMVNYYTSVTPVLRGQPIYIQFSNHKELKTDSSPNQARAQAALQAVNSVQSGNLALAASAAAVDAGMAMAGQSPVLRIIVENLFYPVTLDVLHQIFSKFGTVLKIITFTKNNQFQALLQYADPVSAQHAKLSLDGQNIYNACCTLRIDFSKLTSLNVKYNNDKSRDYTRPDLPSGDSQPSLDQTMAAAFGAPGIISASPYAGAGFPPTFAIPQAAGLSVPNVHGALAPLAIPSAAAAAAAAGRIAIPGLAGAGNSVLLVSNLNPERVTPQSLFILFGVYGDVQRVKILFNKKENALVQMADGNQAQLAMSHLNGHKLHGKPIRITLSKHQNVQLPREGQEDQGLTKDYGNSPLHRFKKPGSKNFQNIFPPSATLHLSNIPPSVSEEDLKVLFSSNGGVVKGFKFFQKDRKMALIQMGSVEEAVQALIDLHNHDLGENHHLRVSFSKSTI
# No constants are given. Whether binding was seen depends on the method and setting. In cells and extracts the contact can be indirect.
# Target: StrepII-His6-RBPMS-A (full length) (rat)
# Assay: pull-down; 2 μM StrepII-His6-RBPMS variant in 60% HeLa NE, 2.2 mM MgCl2, 2.6% PVA, 30°C 15 min; MagStrep 'type3' XT beads; six washes with 150 mM KCl buffer; elution with biotin; immunoblot; only the target purified
substance,measurement,value
PTBP1 (from UniProt P26599 1-557),binding,no binding (tested: 2 μM StrepII-His6-RBPMS)
